Results are given in words; binding and its absence hold for the method and conditions named. Some results given as binding are weak or reduced against the parent protein; the word gives no strength.
Key:
[1] = target: human activated protein C (APC) (human) (UniProt P04070); test: ELISA
[2] = target: human activated protein C (APC) (human) (UniProt P04070); test: ELISA screen, APC-coated wells, OD450, n=2
[3] = target: human activated protein C (APC) (human) (UniProt P04070); test: ELISA screen, APC-coated wells, OD450, n=2 [Continued]

Chains of the proteins cited; added tags and fusions are not shown. Lines headed by an entry give the natural chain unless they say otherwise; changes in a name come on top.
UniProt P04070: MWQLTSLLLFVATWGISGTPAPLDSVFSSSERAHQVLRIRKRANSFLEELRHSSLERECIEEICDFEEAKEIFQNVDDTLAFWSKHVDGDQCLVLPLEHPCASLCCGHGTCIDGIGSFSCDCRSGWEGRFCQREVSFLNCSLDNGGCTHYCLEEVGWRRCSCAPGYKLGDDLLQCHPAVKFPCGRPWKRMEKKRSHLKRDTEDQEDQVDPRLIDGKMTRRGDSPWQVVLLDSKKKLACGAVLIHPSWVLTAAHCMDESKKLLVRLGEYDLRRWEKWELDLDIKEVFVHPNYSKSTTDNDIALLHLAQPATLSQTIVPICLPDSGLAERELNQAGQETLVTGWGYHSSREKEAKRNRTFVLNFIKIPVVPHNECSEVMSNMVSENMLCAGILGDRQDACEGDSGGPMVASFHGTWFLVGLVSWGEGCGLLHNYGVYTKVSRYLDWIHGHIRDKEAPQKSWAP

Binder	binding [1]	binding [2]	binding [3]
SR16983-R2P1C10 (VHH) VHH: QLQLVESGGGLVQPGGSLRLSCAASGRIFGSYVMGWFRQAPGKEHEFVAASSRSTGNTVYLDSVKGRFTISRDDAKNTLYLQMNSLKPEDTAVYYCATRASINYNYANWPYRGQGTQVTVSS	binds	binds	
SR16983-R3-P2-G01 (VHH) VHH: QLQLVESGGGLVQAGGSLRLSCAASGSTFSFNYMGWYRQAPGNQRDLVARISSGGITNYADSVKGRFTISGDNAKNTVYLQMNSLKPEDTARYYCFYNGYLNKWGRGTQVTVSS	binds	binds	
SR16983-R3-P2-D01 (VHH) VHH: EVQLVESGGGLVQAGGSLRLSCAASGFTFSTKWMYWVRQGPGKGLEWVSTIDASGGSTYYADSVKGRFTISRDNTEKKVYLQMNSLESADTAVYYCARSAGGQFRGRGTQVTVSS	binds	binds	
SR16983-R4-P1-A05 (VHH) VHH: EVQLVESGGGLVQAGESLRLSCVLSGSTFGRNVITWYRQPPGKQREFIAMITTSGNTRYADSVKGRFTMSRDTAKNTAFLQMSNLKLEDTAVYYCWTAIAGQGEYWGQGTQVTVSS	binds	binds	
SR16983-R2-P4-E03 (VHH) VHH: QVQLVESGGGLVQAGGSLRLSCAASGRTFSSGALGWFRQAPGKEREFVATIRWSDERKQYSEFVKGRFTISRDSAKNTVYLQMNNLQPEDTAVYYCRSTVGNVLYWGQGTQVTVSS	binds	binds	
SR16983-R3-P3-H05 (VHH) VHH: QVQLVESGGGLVQPGRSLRLSCAASGFTFSTKWMYWVRQGPGKGLERVAAIDAGGGSTYYADSVKGRFTISRDNSENTVYLQMNSLESADTAVYYCARSEGGLFRGRGTQVTVSA	binds	binds	
SR16983-R2-P2-H04 (VHH) VHH: QVQLVESGGGLVQAGGSLRLSCAASGTTFSFVYMGWFRQAPGNQRDLVARISSDGSTNYADSVKGRFTISGDNAKNTVYLQMNSLKPEDTARYFCFYNAHLNKWGQGTQVTVSS	binds	binds	
SR16983-R3-P5-F03 (VHH) VHH: QVQLVESGGGLVQAGGSLRLSCAASGRTVGTYAIGWFRQAPGKEREFVAAFSRSTGNTVYPDSVKGRFTISRDDAKNTLYLQMNSLKPEDTAVYYCAARASINYNYANWPYWGQGTQVTVSS	binds	binds	
SR16983-R2-P3-E04 (VHH) VHH: QLQLVESGGGLVQAGGSLRLSCAASGRTVGSYVMGWFRQAPGKEREFLAASSRSTGNTVYADSVKGRFSISRDDAKNTLYLQMNSLKPEDTAVYYCATRASINYNYANWPYWGQGTQVTVSS	binds		binds
SR16983-R3-P3-C10 (VHH) VHH: QLQLVESGGGLVQAGGSLRLSCAASGRTVGSYAMGWFRQAPGKEREFLAAFSRSTGPTVYADSVKGRFTISRDDAKNTLYLQMNSLKPEDTAVYYCAARASINYNYANWPYWGQGTQVTVSS	binds		binds
SR16983-R3P2B6 (VHH) VHH: QLQLVESGGGLVQAGGSLRLACAASGFSFDDYAIGWFRQAPGKEREGVSCITSDGSTYYADSVKGRFTISSDNAKNTVYLQMNILKPEDTAVYYCARGGLLLPKPELFEYWGQGTQVTVSS	binds		binds
SR16983-R3P2D01 (VHH) VHH: QLQLVESGGGLVQAGGSLRLSCAASGTTSSFVYMGWYRQAPGNQRDLVARISSDGSTNYADSVKGRFTISGDNAKNTVYLQMNSLKPEDTARYYCFYNGHVNKWGQGTQVTVSS	binds		binds
SR16983-R3-P5-D08 (VHH) VHH: EVQLVESGGGLVQAGGSLRLSCTGSGSTFSVTAGGWYRQAPGKQRELVADIANDGSTTYLDFVKGRFTISRDNAKNSVDLQMNSLKPEDTAVYYCFVVGISDSTPRPRAYWGQGTQVTVSS	binds		binds
SR16983-R3-P3-H10 (VHH) VHH: QVQLVESGGGLVQAGDSLRLSCAASTRTVGTYVMGWFRQAPGKERELVAASSRSTGNTVYPDSVKGRFTVSRDDAKNALYLQMNSLKPEDTAIYYCAARASINYNYANWPYWGQGTQVTVSS	binds		binds
SR16983-R3-P4-E11 (VHH) VHH: QLQLVEFGGGLVQAGGSLRLSCAASGSTFSFNYMGWYRQAPGNQRDLVARISSGGITNYADSVKGRFTISGDNAKNTVYLQMNSLKPEDTARYYCFYNGYLNKWGQGTQVTVSS	binds		binds
SR16983-R2-P4-E11 (VHH) VHH: QLQLVESGGGLVQAGGSLRLSCAASGTTFSFVYMGWYRQAPGNQRDLVARISRDGSTNYLDSVKGRFTISGDNAKNTVYLQMNSLKPEDTARYYCFYNGHLNKWGRGTQVTVSS	binds		binds
SR16983-R3P2D06 (VHH) VHH: QLQLVESGGGLVQPGGSLRLSCAASGRTVGSYVMGWFRQAPGKERELLAASSRSTGNTVYADSVKGRFTISRDDAKNTLYLQMNSLKPEDTAVYYCAARASINYNYANWPYWGQGTQVTVSS	binds		binds
SR16983-R3-P3-G04 (VHH) VHH: QLQLVESGGGLVQAGGSLRLSCTASGSTVRVTAGGWYRQAPGNERELVADIDNGGRPTYADSVKGRFTISRDNAKNAVDLQMNNLKPEDTAVYYCFVIAIPDSAPRPRAYWGQGTQVTVSS	binds		binds
SR16983-R2-P3-F01 (VHH) VHH: EVQLVESGGGLVQPGGSLRLSCAASGFTFSTKWMYWVRQGPGKGLEWVSTIDASGGSTYYADSVKGRFTISRDNTEKKVYLQMNSLESADTAVYYCVRSAGGQFRGRGTQVTVSS	binds		binds
SR16983-R3P2A5 (VHH) VHH: QLQLVESGGGLVQPGGSLRLSCAASGFTFSTKWMYWVRQGPGKGLERVAAIDASGGSTYYADSVKGRFTISRDNSENTLYLQMNSLESADTAVYYCARSEGGLFRGRGTQVTVSA	binds		binds
SR16983-R2-P3-E05 (VHH) VHH: EVQLVESGGGLVQAGGSLRLSCAASGLTASTYVMAWFRQAPGKERDFVSLIDWRGEPTYANSVKGRFTISRDNGKNTVFLQMNSLRPEDTALYYCAVRASPGYVASLYPYWGRGTQVTVSS	binds		binds
SR16983-R3-P5-H06 (VHH) VHH: QLQLVESGGGLVQAGGSLRLSCAASGRTFGTYVIGWFRQAPGKEREFVAAFSRSTGNTVYPDSVKGRFTISRDDAKNTVYLQMNSLKPEDTAVYYCAARASINYNYANWPYWGQGTQVTVSS	binds		binds
SR16983-R3-P5-G12 (VHH) VHH: QLQLVESGGGLVQAGGSLRLSCVASGRTVGSYAVAWFRQAPGKERELLAASSRSTGNTVYADSVKGRFTIARDDAKNTLYLQMNSLKPEDTAVYYCAARASINYNYANWPYWGQGTQVTVSS	binds		binds
SR16983-R2-P3-F10 (VHH) VHH: QVQLVESGGGLVQPGGSLRLSCKASGFTFSTKWMYWVRQGPGKGLERVAAIDASGGSTYYADSVKGRFTISRDNSDNTVYLQMNSLESADTAVYYCARSEGGQFRGQGTQVTVSS	binds		binds
SR16983-R2-P2-D01 (VHH) VHH: QLQLVESGGGLVQAGGSLRLSCVASGRTFSTYAMGWFRQAPGKEREFVGAIRWDGGSTNYANSVKGRFTISRDNAKNTVYLQVNSLKPEDTAVYYCAARASINYNYANWPYWGRGTQVTVSS	binds		binds
SR16983-R2-P5-D01 (VHH) VHH: QLQLVESGGGLVQAGGSLRLSCVASGTTFTIEDIGWYRLAPGKQRELVAIISGGNTNYADSVKGRFTISRDNTKNTVYLQMNSLKPEDTAVYYCNGRTKATVKWGRGTQVTVSS	binds		binds
SR16983-R2-P3-B01 (VHH) VHH: QLQLVESGGGLVQAGGSLRLSCAASGRTFGTYVIGWFRQAPGKEREFVAAFSRSTGNTVYPDSVKGRFTISRDDAKNTVTLQMNSLKPEDTAVYYCAARASINYNYANWPYWGQGTQVTVSS	binds		binds
SR16983-R3P2A08 (VHH) VHH: QLQLVESGGGLVQPGGSLRLSCAASGFTFSTKWMYWVRQGPGKGLERVAAIDASGGSTYYADSVKGRFTISRDNSENTVYLQMNSLESADTAVYYCARSEGGLFRGRGTQVTVSA	binds		binds
SR16983-R2-P3-F12 (VHH) VHH: QVQLVESGGGLVQAGGSLRLSCAASGRTFGTYVMGWFRQAPGKEREFVAAFSRSTGSTTYADSVKGRFTISRDDAKNTLYLQMNSLKPEDTAVYYCATRASINYNYANWPYWGQGTQVTVSS	binds		binds
SR16983-R3P2E05 (VHH) VHH: QVQLVESGGGLVQAGGSLRLSCTTSGSTFSITAGGWYRQAPGEQRELVADVANDGSTSYAESVKGRFTISRDNAKNIVELQMSSLELEDTAVYVCFVVGISDSTPRPRAYWGQGTQVTVAS	binds		binds

From patent publication US20250163183A1
